According to article PMC6765184:
These are yes or no findings as the source states them, for the method shown. For some assays here: In cells and extracts the contact can be indirect. Some results given as binding are weak or reduced against the parent protein; the word gives no strength. Tags and fused reporters may be left off the sequences shown.

What was measured:
Klp6-GFP (S. pombe) = molecular target: T1, Klp6-GFP (S. pombe) (UniProt O59751); test: co-IP; Klp6-GFP precipitated with magnetic GFP-trap from 2.8 mg S. pombe whole cell extract, 1.5 h at 4°C, IP buffer (50 mM Tris-HCl pH 7.4, 1 mM EDTA, 150 mM NaCl, 0.05% NP-40, 10% glycerol); blot with anti-FLAG and anti-GFP
T1 sequence: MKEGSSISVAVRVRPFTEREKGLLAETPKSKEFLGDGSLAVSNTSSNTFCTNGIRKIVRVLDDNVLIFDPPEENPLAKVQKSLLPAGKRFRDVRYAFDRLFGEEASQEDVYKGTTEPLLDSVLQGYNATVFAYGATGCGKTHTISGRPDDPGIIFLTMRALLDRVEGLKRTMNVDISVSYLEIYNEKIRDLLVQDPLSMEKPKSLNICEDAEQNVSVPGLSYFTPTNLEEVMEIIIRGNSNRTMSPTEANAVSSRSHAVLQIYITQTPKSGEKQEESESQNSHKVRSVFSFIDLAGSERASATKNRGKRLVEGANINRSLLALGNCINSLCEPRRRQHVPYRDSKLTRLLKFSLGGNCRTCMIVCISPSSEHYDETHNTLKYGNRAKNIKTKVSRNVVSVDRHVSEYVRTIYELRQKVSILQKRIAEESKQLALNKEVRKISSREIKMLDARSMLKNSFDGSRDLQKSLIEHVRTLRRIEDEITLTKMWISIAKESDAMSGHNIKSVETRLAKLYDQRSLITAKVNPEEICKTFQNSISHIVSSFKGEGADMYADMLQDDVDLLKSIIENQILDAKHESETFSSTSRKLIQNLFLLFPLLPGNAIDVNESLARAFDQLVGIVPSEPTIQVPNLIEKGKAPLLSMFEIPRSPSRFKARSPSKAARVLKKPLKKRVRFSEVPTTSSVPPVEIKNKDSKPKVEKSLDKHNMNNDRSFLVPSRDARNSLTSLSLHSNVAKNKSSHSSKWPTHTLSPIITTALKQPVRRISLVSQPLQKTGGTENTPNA

[1] = molecular target: T2, Klp5^Q582P-HA (recombinant) (S. pombe) (UniProt O14343); test: SEC; co-expressed in E. coli; complex held on IgG Sepharose by protein A on Klp5, cut off with PreScission protease, then Superose-6 gel filtration in LEW buffer (50 mM HEPES pH 7.5, 300 mM KCl) at 4°C
T2 sequence: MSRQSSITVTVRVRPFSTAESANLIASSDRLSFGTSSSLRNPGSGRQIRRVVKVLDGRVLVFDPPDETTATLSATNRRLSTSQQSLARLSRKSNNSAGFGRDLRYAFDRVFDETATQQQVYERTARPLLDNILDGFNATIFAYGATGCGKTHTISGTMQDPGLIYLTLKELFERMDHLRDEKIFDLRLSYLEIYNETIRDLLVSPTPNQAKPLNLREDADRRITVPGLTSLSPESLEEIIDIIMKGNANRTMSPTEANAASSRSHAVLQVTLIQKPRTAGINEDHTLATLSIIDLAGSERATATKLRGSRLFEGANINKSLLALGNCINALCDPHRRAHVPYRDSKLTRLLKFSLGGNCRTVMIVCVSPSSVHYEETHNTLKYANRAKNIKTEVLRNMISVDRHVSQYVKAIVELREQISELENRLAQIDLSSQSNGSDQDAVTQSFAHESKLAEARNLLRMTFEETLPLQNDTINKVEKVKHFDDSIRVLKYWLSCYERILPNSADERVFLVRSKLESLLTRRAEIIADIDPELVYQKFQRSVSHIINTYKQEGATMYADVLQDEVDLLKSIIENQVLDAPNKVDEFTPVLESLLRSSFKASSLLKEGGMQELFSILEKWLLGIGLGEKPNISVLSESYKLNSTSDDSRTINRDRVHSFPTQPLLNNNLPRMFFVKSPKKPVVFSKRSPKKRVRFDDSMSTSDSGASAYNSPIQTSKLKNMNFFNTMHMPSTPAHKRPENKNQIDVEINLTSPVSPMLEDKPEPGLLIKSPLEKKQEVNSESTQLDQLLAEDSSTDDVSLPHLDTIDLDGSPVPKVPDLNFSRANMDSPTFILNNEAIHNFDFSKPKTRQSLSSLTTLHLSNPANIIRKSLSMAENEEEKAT

B1: Klp5^Q582P-5FLAG (protein, UniProt O14343 1-883)
chain: T2 sequence
Which binding (Klp6-GFP (S. pombe)) does the source give for B1 here?
The binding was “binds”.

B2: Klp6-msfGFP (recombinant, full length) (protein, UniProt O59751 1-784)
chain: T1 sequence
How did the binding [1] turn out when B2 was run?
The binding was “binds”.
